Measurements taken from the supplement of paper PMC8728848.
Some of the results follow.

Legend:
Assay in all cases: glycan array binding signal (z-score within array); higher = stronger binding
Conditions in all cases: glycan notation: IUPAC condensed, linker removed
[1] = target: Fuc(a1-2)Gal
In short: (§1)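 Glycan array data came from 3228 arrays in the Consortium for Functional Glycomics database, and only arrays with an available protein sequence were kept. Glycan names were put into IUPAC-condensed notation, and columns mapping to the same glycan were averaged. The binding signal is a within-array Z-score, averaged across arrays of one protein sequence run at different concentrations or buffers and across linkers. A negative Z-score can be read as non-binding.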

[2] = target: Fuc(a1-2)Gal(b1-3)GalNAc
In short: as §1

[3] = target: Fuc(a1-2)Gal(b1-3)GalNAc(a1-3)[Fuc(a1-2)]Gal(b1-4)Glc
In short: as §1

[4] = target: Fuc(a1-2)Gal(b1-3)GalNAc(a1-3)[Fuc(a1-2)]Gal(b1-4)GlcNAc
In short: as §1

[5] = target: Fuc(a1-2)Gal(b1-3)GalNAc(b1-3)Gal
In short: as §1

[6] = target: Fuc(a1-2)Gal(b1-3)GalNAc(b1-3)Gal(a1-4)Gal(b1-4)Glc
In short: as §1

[7] = target: Fuc(a1-2)Gal(b1-3)GalNAc(b1-4)[Neu5Ac(a2-3)]Gal(b1-4)Glc
In short: as §1

[8] = target: Fuc(a1-2)Gal(b1-3)GlcNAc
In short: as §1

[9] = target: Fuc(a1-2)Gal(b1-3)GlcNAc(b1-2)Man(a1-3)[Fuc(a1-2)Gal(b1-3)GlcNAc(b1-2)Man(a1-6)]Man(b1-4)GlcNAc(b1-4)GlcNAc
In short: as §1

[10] = target: Fuc(a1-2)Gal(b1-3)GlcNAc(b1-2)Man(a1-3)[Fuc(a1-2)Gal(b1-3)GlcNAc(b1-2)Man(a1-6)]Man(b1-4)GlcNAc(b1-4)[Fuc(a1-6)]GlcNAc
In short: as §1

[11] = target: Fuc(a1-2)Gal(b1-3)GlcNAc(b1-3)Gal(b1-4)Glc
In short: as §1

[12] = target: Fuc(a1-2)Gal(b1-3)GlcNAc(b1-3)GalNAc
In short: as §1

[13] = target: Fuc(a1-2)Gal(b1-3)GlcNAc(b1-3)[Fuc(a1-2)Gal(b1-3)GlcNAc(b1-6)]GalNAc
In short: as §1

[14] = target: Fuc(a1-2)Gal(b1-3)GlcNAc(b1-3)[Gal(b1-4)GlcNAc(b1-6)]Gal(b1-4)Glc
In short: as §1

[15] = target: Fuc(a1-2)Gal(b1-3)GlcNAc(b1-3)[Neu5Ac(a2-6)Gal(b1-4)GlcNAc(b1-6)]Gal(b1-4)Glc
In short: as §1

[16] = target: Fuc(a1-2)Gal(b1-3)GlcNAc6S
In short: as §1

[17] = target: Fuc(a1-2)Gal(b1-3)[Fuc(a1-4)]GlcNAc
In short: as §1

[18] = target: Fuc(a1-2)Gal(b1-3)[Fuc(a1-4)]GlcNAc(b1-2)Man(a1-3)[Fuc(a1-2)Gal(b1-3)[Fuc(a1-4)]GlcNAc(b1-2)Man(a1-3)]Man(b1-4)GlcNAc(b1-4)GlcNAc
In short: as §1

[19] = target: Fuc(a1-2)Gal(b1-3)[Fuc(a1-4)]GlcNAc(b1-2)Man(a1-3)[Fuc(a1-2)Gal(b1-3)[Fuc(a1-4)]GlcNAc(b1-2)Man(a1-6)]Man(b1-4)GlcNAc(b1-4)[Fuc(a1-6)]GlcNAc(b1-4)[Fuc(a1-6)]GlcNAc
In short: as §1

[20] = target: Fuc(a1-2)Gal(b1-3)[Fuc(a1-4)]GlcNAc(b1-3)[Fuc(a1-3)[Gal(b1-4)]GlcNAc(b1-6)]Gal(b1-4)Glc
In short: as §1

[21] = target: Fuc(a1-2)Gal(b1-3)[Fuc(a1-4)]GlcNAc(b1-3)[Gal(b1-4)GlcNAc(b1-6)]Gal(b1-4)Glc
In short: as §1

[22] = target: Fuc(a1-2)Gal(b1-4)Glc
In short: as §1

[23] = target: Fuc(a1-2)Gal(b1-4)Glc6S
In short: as §1

[24] = target: Fuc(a1-2)Gal(b1-4)GlcNAc
In short: as §1

[25] = target: Fuc(a1-2)Gal(b1-4)GlcNAc(b1-2)Man
In short: as §1

[26] = target: Fuc(a1-2)Gal(b1-4)GlcNAc(b1-2)Man(a1-3)[Fuc(a1-2)Gal(b1-4)GlcNAc(b1-2)Man(a1-6)]Man(b1-4)GlcNAc(b1-4)GlcNAc
In short: as §1

[27] = target: Fuc(a1-2)Gal(b1-4)GlcNAc(b1-2)Man(a1-3)[Fuc(a1-2)Gal(b1-4)GlcNAc(b1-2)Man(a1-6)]Man(b1-4)GlcNAc(b1-4)[Fuc(a1-6)]GlcNAc
In short: as §1

[28] = target: Fuc(a1-2)Gal(b1-4)GlcNAc(b1-2)[Fuc(a1-2)Gal(b1-4)GlcNAc(b1-4)]Man(a1-3)[Fuc(a1-2)Gal(b1-4)GlcNAc(b1-2)Man(a1-6)]Man(b1-4)GlcNAc(b1-4)GlcNAc
In short: as §1

[29] = target: Fuc(a1-2)Gal(b1-4)GlcNAc(b1-3)Gal(b1-4)GlcNAc
In short: as §1

[30] = target: Fuc(a1-2)Gal(b1-4)GlcNAc(b1-3)Gal(b1-4)GlcNAc(b1-2)Man(a1-3)[Fuc(a1-2)Gal(b1-4)GlcNAc(b1-3)Gal(b1-4)GlcNAc(b1-2)Man(a1-6)]Man(b1-4)GlcNAc(b1-4)GlcNAc
In short: as §1

B1: EULS2 M1 (Oryza sativa) (protein)
chain: MVYCRANPNYAMTARNGAVVLAPANPKDEYQHWIKDMRWSTSIKDEEGYPAFALVNKATGQAIKHSLGQSHPVRLVPYNPEVMDESVLWTESRDVGNGFRCIRMVNNIYLNFDAFHGDKYHGGVRDGTDIVLWKLCEGDNQRWKIQPYYILEQKLISEEDLNSAVDHHHHHH
- glycan array binding signal (z-score) [1]: 1.54
- glycan array binding signal (z-score) [2]: -0.456
- glycan array binding signal (z-score) [3]: -0.333
- glycan array binding signal (z-score) [4]: 0.17
- glycan array binding signal (z-score) [5]: -0.281
- glycan array binding signal (z-score) [6]: 1.34
- glycan array binding signal (z-score) [7]: -0.318
- glycan array binding signal (z-score) [8]: -0.123
- glycan array binding signal (z-score) [9]: 0.35
- glycan array binding signal (z-score) [10]: -0.068
- glycan array binding signal (z-score) [11]: -0.208
- glycan array binding signal (z-score) [12]: 0
- glycan array binding signal (z-score) [13]: -0.878
- glycan array binding signal (z-score) [14]: -0.34
- glycan array binding signal (z-score) [15]: -0.404
- glycan array binding signal (z-score) [16]: -0.334
- glycan array binding signal (z-score) [17]: 0.584
- glycan array binding signal (z-score) [18]: 0.639
- glycan array binding signal (z-score) [19]: 0.969
- glycan array binding signal (z-score) [20]: -0.033
- glycan array binding signal (z-score) [21]: -0.499
- glycan array binding signal (z-score) [22]: -0.519
- glycan array binding signal (z-score) [23]: -0.329
- glycan array binding signal (z-score) [24]: -0.592
- glycan array binding signal (z-score) [25]: -0.162
- glycan array binding signal (z-score) [26]: 2.08
- glycan array binding signal (z-score) [27]: 1.59
- glycan array binding signal (z-score) [28]: 0.298
- glycan array binding signal (z-score) [29]: -0.744
- glycan array binding signal (z-score) [30]: -0.1
